This test deals with HA-tagged TRIAD3B (E3 ubiquitin-protein ligase TRIAD3/RNF216, longest isoform) (human). Put plainly: co-IP; HA-tagged TRIAD3B co-expressed with flag-tagged candidate in HEK293T; lysis in 125 mM Tris pH 7.5, 150 mM NaCl, 1% Triton X-100, 10% glycerol; anti-HA agarose 4 h at 4 °C; anti-flag immunoblot.

No constants are given. Whether binding was seen depends on the method and setting. In cells and extracts the contact can be indirect. Binding calls can cover weak binding; strength is not graded here. Sequences can lack the tags named with a protein.

B1: flag-tagged Ankrd13D (Ankyrin repeat domain-containing protein 13D) (protein, UniProt Q6ZTN6 1-605)
chain: MAGPGPTFPLHRLVWANRHRELEAALHSHQHDIEQEDPRGRTPLELAVSLGNLESVRVLLRHNANVGKENRQGWAVLQEAVSTGDPEMVQLVLQYRDYQRATQRLAGIPELLNKLRQAPDFYVEMKWEFTSWVPLVSKMCPSDVYRVWKRGESLRVDTSLLGFEHMTWQRGRRSFIFKGQEAGALVMEVDHDRQVVHVETLGLTLQEPETLLAAMRPSEEHVASRLTSPIVSTHLDTRNVAFERNKCGIWGWRSEKMETVSGYEAKVYSATNVELVTRTRTEHLSDQDKSRSKAGKTPFQSFLGMAQQHSSHTGAPVQQAASPTNPTAISPEEYFDPNFSLESRNIGRPIEMSSKVQRFKATLWLSEEHPLSLGDQVTPIIDLMAISNAHFAKLRDFITLRLPPGFPVKIEIPLFHVLNARITFSNLCGCDEPLSSVWVPAPSSAVAASGNPFPCEVDPTVFEVPNGYSVLGMERNEPLRDEDDDLLQFAIQQSLLEAGTEAEQVTVWEALTNTRPGARPPPQATVYEEQLQLERALQESLQLSTEPRGPGSPPRTPPAPGPPSFEEQLRLALELSSREQEERERRGQQEEEDLQRILQLSLTEH
With B1, the binding entry is “binds”.

B2: flag-tagged RNF41 (enzyme, UniProt Q9H4P4 1-317)
chain: MGYDVTRFQGDVDEDLICPICSGVLEEPVQAPHCEHAFCNACITQWFSQQQTCPVDRSVVTVAHLRPVPRIMRNMLSKLQIACDNAVFGCSAVVRLDNLMSHLSDCEHNPKRPVTCEQGCGLEMPKDELPNHNCIKHLRSVVQQQQTRIAELEKTSAEHKHQLAEQKRDIQLLKAYMRAIRSVNPNLQNLEETIEYNEILEWVNSLQPARVTRWGGMISTPDAVLQAVIKRSLVESGCPASIVNELIENAHERSWPQGLATLETRQMNRRYYENYVAKRIPGKQAVVVMACENQHMGDDMVQEPGLVMIFAHGVEEI
Regarding B2, the binding entry was “binds”.

The values above are taken from publication PMC6411869.
